Test results: article PMC11984722
These are yes or no findings as the source states them, for the method shown. In cells and extracts the contact can be indirect. Some entries that bind do so weakly or less than the wild type. For some of these results: Sequences can lack the tags named with a protein.

Sequences of proteins named here, by UniProt entry; tags and fusion partners are left off. Residues count along the entry.
UniProt Q15418: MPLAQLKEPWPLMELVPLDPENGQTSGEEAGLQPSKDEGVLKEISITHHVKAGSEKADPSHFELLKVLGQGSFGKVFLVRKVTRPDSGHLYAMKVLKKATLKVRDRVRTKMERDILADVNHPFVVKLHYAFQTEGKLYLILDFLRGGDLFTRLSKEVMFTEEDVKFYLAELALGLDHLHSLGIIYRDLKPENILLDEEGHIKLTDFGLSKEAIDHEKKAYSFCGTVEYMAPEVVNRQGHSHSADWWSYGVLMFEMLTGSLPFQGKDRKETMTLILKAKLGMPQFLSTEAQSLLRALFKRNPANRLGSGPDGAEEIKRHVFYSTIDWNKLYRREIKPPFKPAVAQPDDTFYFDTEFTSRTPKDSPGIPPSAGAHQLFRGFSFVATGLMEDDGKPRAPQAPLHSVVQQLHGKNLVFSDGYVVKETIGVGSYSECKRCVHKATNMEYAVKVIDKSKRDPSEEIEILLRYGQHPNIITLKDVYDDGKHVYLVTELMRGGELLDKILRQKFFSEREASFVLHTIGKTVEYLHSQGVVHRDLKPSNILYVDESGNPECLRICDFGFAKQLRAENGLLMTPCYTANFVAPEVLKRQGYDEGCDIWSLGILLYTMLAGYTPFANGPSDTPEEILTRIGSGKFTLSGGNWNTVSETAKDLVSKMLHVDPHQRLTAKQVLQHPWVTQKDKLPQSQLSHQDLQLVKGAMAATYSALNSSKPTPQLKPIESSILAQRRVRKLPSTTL
UniProt Q8WXI2: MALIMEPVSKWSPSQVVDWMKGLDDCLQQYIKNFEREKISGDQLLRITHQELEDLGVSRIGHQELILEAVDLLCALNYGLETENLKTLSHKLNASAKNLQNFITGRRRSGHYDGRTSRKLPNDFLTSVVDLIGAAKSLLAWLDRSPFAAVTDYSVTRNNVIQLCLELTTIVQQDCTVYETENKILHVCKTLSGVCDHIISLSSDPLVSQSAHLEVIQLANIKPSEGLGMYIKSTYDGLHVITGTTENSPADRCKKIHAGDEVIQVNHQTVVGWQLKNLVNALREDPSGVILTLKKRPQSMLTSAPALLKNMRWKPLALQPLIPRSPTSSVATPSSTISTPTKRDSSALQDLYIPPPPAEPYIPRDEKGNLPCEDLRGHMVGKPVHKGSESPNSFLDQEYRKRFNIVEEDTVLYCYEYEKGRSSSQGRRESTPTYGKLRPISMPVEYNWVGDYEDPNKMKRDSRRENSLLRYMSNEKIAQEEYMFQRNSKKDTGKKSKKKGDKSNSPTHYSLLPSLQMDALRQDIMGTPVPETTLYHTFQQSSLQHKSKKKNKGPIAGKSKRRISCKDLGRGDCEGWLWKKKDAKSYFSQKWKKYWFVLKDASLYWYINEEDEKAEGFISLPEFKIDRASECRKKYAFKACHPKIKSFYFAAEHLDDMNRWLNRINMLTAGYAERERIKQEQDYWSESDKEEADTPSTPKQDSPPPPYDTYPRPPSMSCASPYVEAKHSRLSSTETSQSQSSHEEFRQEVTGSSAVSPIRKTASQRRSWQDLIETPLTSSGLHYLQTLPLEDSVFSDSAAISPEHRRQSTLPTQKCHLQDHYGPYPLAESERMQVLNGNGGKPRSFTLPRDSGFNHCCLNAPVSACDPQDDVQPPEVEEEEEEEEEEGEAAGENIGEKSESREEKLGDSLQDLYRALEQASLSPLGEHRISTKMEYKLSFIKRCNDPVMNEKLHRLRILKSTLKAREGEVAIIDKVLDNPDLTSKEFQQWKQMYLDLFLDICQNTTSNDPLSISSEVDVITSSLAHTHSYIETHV
UniProt Q7Z698: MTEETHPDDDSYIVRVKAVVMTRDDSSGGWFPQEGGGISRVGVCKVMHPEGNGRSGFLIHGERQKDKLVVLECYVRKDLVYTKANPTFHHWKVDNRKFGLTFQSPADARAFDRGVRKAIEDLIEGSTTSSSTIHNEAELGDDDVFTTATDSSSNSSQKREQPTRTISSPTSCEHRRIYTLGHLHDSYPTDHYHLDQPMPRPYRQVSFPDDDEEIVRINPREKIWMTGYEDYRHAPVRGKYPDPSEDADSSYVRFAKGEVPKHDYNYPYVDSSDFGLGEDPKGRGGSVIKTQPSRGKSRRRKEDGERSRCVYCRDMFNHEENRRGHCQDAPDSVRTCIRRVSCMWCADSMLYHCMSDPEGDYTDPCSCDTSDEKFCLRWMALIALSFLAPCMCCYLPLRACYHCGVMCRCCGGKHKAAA
UniProt P11362, residues 22-822: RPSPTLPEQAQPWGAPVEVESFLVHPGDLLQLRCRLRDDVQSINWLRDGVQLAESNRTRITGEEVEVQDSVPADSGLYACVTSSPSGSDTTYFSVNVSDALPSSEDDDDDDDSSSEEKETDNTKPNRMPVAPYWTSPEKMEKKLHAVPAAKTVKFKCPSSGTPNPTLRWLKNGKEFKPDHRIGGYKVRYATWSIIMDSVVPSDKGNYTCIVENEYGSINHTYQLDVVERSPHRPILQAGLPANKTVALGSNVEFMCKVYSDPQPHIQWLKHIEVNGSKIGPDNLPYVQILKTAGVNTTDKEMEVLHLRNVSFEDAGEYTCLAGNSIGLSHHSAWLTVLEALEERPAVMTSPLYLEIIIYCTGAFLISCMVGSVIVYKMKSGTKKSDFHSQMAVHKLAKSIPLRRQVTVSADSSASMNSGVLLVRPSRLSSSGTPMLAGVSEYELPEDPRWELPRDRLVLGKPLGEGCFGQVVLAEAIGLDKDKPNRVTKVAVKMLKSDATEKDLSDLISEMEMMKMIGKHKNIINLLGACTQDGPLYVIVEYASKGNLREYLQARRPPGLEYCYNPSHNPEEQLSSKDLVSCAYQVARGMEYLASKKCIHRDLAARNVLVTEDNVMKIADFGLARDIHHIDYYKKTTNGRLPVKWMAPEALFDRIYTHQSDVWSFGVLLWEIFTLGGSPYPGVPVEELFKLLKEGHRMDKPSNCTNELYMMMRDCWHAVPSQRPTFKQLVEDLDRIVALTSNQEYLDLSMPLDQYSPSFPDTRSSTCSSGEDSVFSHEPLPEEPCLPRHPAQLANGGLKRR

Legend:
Assay in all cases: co-IP
[1] = target: FLAG-RSK1 wild type (KAKLGM), in HeLa (human) (UniProt Q15418)
[2] = target: T1, FLAG-GAB3 wild type (DDVF) (human) (UniProt Q8WWW8)
T1 sequence: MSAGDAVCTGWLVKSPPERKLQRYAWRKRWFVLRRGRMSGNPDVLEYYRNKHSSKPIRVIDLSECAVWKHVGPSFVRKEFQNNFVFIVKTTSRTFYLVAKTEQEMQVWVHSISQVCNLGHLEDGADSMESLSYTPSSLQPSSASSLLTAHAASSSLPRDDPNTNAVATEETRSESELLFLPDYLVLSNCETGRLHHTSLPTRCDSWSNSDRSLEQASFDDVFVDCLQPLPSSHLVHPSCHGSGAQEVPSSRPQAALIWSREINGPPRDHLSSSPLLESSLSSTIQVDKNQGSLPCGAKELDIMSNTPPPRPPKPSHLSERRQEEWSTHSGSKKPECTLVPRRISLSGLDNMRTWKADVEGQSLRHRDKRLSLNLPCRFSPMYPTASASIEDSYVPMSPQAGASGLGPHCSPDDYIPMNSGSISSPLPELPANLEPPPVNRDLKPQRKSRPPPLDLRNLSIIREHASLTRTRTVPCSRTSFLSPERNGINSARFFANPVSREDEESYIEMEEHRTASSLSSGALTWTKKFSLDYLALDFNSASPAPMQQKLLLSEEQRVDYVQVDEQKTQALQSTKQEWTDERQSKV

[3] = target: FLAG-CNKSR2 wild type (DSVF) (human) (UniProt Q8WXI2)
[4] = target: FLAG-SPRED2 wild type (DDVF), in HEK293T (human) (UniProt Q7Z698)

## HA-FGFR1 wild type (DSVF) (from UniProt P11362 22-822) (receptor)
[1]
  binding: binds

## HA-RSK1 wild type (KAKLGM) (from UniProt Q15418 1-735) (enzyme)
[2]
  binding: binds
[3]
  binding: binds
[4]
  binding: binds
